In article PMC4942636:
Results are given in words; binding and its absence hold for the method and conditions named. Binding seen in cells or lysates may run through a third protein. Here binding means that the protein was enriched with, or labelled near, the bait; the list need not be complete. For some assays here: A no says only that the protein was not detected with the bait. For some assays here: Tags and fused reporters may be left off the sequences shown.

Legend:
[1] = molecular target: Myc-BirA*-Txnip (human) (UniProt Q9H3M7); assay: proximity labelling; BioID: Myc-BirA*-Txnip or its C247S mutant stably expressed in HEK293, DMEM with 25 mM glucose and 50 uM biotin for 24 hrs; stringent lysis (0.4% SDS, 500 mM NaCl), biotinylated proteins captured on streptavidin Dynabeads, on-bead trypsin digestion, 1D LC-MS/MS; hits in at least 2 of 3 trials, parental HEK293 as control; also the high glucose arm of cells acclimated to low glucose
[2] = molecular target: T1, Myc-BirA*-Txnip C247S (human) (UniProt Q9H3M7); assay: as above
T1 sequence: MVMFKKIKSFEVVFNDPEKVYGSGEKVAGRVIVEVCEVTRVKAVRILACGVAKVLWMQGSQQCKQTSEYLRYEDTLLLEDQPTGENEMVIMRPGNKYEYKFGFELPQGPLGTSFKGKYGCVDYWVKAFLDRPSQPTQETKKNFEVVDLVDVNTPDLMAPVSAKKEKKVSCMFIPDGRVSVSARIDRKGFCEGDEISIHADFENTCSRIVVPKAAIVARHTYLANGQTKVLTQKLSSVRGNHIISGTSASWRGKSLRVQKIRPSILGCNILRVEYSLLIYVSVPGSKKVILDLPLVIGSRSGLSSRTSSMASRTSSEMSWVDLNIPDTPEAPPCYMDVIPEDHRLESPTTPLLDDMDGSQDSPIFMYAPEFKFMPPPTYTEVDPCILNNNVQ

B1: DnaJ homolog subfamily C member 7 (protein, UniProt Q99615 1-494)
chain: MAAAAECDVVMAATEPELLDDQEAKREAETFKEQGNAYYAKKDYNEAYNYYTKAIDMCPKNASYYGNRAATLMMLGRFREALGDAQQSVRLDDSFVRGHLREGKCHLSLGNAMAACRSFQRALELDHKNAQAQQEFKNANAVMEYEKIAETDFEKRDFRKVVFCMDRALEFAPACHRFKILKAECLAMLGRYPEAQSVASDILRMDSTNADALYVRGLCLYYEDCIEKAVQFFVQALRMAPDHEKACIACRNAKALKAKKEDGNKAFKEGNYKLAYELYTEALGIDPNNIKTNAKLYCNRGTVNSKLRKLDDAIEDCTNAVKLDDTYIKAYLRRAQCYMDTEQYEEAVRDYEKVYQTEKTKEHKQLLKNAQLELKKSKRKDYYKILGVDKNASEDEIKKAYRKRALMHHPDRHSGASAEVQKEEEKKFKEVGEAFTILSDPKKKTRYDSGQDLDEEGMNMGDFDPNNIFKAFFGGPGGFSFEASGPGNFFFQFG
binding [1]: binds | binding [2]: no binding
